# Measurements published in PubChem BioAssay AID1347075 (National Center for Advancing Translational Sciences (NCATS), 2019).
# The whole screen tested about 400,000 compounds, of which about 5,500 (1.4%) were called active. The shares of active, inactive and inconclusive entries below differ from those in the screen. Calls come from the whole dose curve; as a rule, active = well fitted cell-killing curve with a large enough effect; inconclusive = small, poorly fitted or top-dose-only effect, or effect the other way; inactive = flat fitted curve, though single readings scatter. Where the call is inconclusive, the potency comes from a doubtful curve fit.
# Assay: qHTS assay for MDR1-selective chemotherapeutics: Primary screen using the parental adenocarcinoma cell KB-3-1; note: nearly all actives have a fitted effect of over 60% in size
# Conditions: KB-3-1 viability, CellTiter-Glo ATP luminescence, 72 h; activity change, negative = cytotoxic: at 46.1 µM (top of the series)
# How it was run: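 Luminescent ATP read-out (CellTiter-Glo) measures survival of drug-naive KB-3-1 cells after 72 h compound exposure at 37 °C. Titration series was screened from lowest to highest concentration, with DMSO vehicle plates as background controls.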
# % is set by controls: 0 for no effect and ±100 for the full control effect; potency is the fitted concentration of half-maximal effect.
Structure (SMILES),"activity change, negative = cytotoxic",Potency
O=C(Nc1ccccc1C(F)(F)F)c1noc2c1CCCC2,inactive: -4.48%,
COc1ccc(C(=O)NCC(c2ccco2)N2CCc3ccccc3C2)c(OC)c1 (centres undefined),inactive: 9.79%,
COc1ccccc1C(=O)NNC(=O)c1ccc(NC(=O)C(C)C)cc1,,"inconclusive: 29.1 µM [rising, single point]"
Cc1ccc(NC(=O)c2cnn3c2NC(=C2CC2)C=C3C(F)F)cc1,,"inconclusive: 29.1 µM [rising, single point]"
CCCN1CCN(CC(=O)Nc2nnc(C)s2)CC1,,"inconclusive: 0.013 µM [rising, full curve]"
CCC(=O)Nc1c(C(=O)Nc2ccc3c(c2)OCCO3)oc2ccccc12,,"inconclusive: 16.4 µM [rising, partial curve, poor fit]"
O=[N+]([O-])c1c(O)c(Cl)cc(Cl)c1Cl (tested in a mixture with another compound),inactive: 2.87%,
CCCc1nnc(NC(=O)Cn2c(=O)oc3cc(Br)ccc32)s1,,"inconclusive: 29.1 µM [cytotoxic, single point]"
CCC1CCCCN1CCCNC(=O)C(C)n1nc(C)c2sc3ccccc3c2c1=O (centres undefined),,"inconclusive: 23.1 µM [cytotoxic, single point]"
CNC(=O)c1c(NC(=O)c2ccc3ncsc3c2)sc(C)c1C,,"inconclusive: 7.31 µM [rising, partial curve]"
CCOc1ccc(C2CC(c3cccc(Cl)c3)n3nc(N)nc3N2)cc1 (centres undefined),,"inconclusive: 20.6 µM [rising, partial curve, poor fit]"
C=CC[n+]1c(-c2ccc(Cl)cc2Cl)csc1Nc1ccc(NC(C)=O)cc1,,"inconclusive: 23.1 µM [cytotoxic, single point]"
COc1cccc(CNCc2ccccn2)c1OC,inactive: -15.1%,
COc1cc(C2C(C#N)=C(N)Oc3c2ccc2ccccc32)ccc1OCC(=O)Nc1ccc(C)cc1 (centres undefined),,"inconclusive: 29.1 µM [cytotoxic, single point]"
CCCCCc1c(-c2ccc(Cl)cc2)ncn1CCc1ccccc1OC,,"inconclusive: 18.4 µM [cytotoxic, single point]"
CC1CN(c2nc3ccccc3nc2SCC(=O)Nc2ccc(F)cc2)CC(C)O1 (centres undefined),,"inconclusive: 29.1 µM [cytotoxic, single point]"
O=C(NCCc1ccccc1)c1ccc(-c2ccccc2C(F)(F)F)o1,inactive: -3.16%,
CS(=O)(=O)N1CCN(C(=O)C(Sc2ccccc2)c2ccccc2)CC1 (centres undefined),inactive: 14.8%,
Clc1cccc(Nc2nnc(-c3ccccc3)c3ccccc23)c1,,"inconclusive: 29.1 µM [cytotoxic, single point]"

# Entries of single compounds from above:
# CCC(=O)Nc1c(C(=O)Nc2ccc3c(c2)OCCO3)oc2ccccc12 is listed as Potency: inconclusive: 16.4 µM [rising, partial curve, poor fit]
# COc1cccc(CNCc2ccccn2)c1OC is listed as activity change, negative = cytotoxic: inactive: -15.1%
